Results: patent US20230125810A1, “DESIGNED BACTERIAL COMPOSITIONS AND USES THEREOF” (Seres Therapeutics, Inc., priority 2019, published 2023)
Some of these results come from one statement about several compounds together.

system: primary human colon epithelial cell monolayer; test: Primary epithelial cell monolayer barrier integrity assay (IFN-γ, FITC-dextran); conditions: in the presence of IFN-γ

Row | SMILES | concentration from which barrier integrity is restored [mM]
1 | O=C(O)CCc1c[nH]c2ccccc12 [3-indolepropionic acid] | ≥ 5
2 | CCCC(=O)O [butyrate] | ≥ 5
3 | CCC(=O)O [propionate] | ≥ 5
